The results in this text go back to US5625032A (Amylin Pharmaceuticals, Inc., priority 1993, dated 1997).

Some peptides are written in HELM: one residue between dots, names in brackets for other building blocks, links after the first $.

The nature of the data set: general procedure: Fmoc solid-phase peptide synthesis; 4-(2',4'-dimethoxyphenyl)-Fmoc aminomethyl phenoxy resin (Novabiochem); HBTU (Fast Moc). The settings on record: whole synthesis, analytical RP-HPLC.

On to “PEPTIDE1{[ac].A.T.Q.R.L.A.N.E.L.V.R.L.Q.T.Y.P.R.T.N.V.G.S.N.T.Y.[am]}$$$$V2.0”, for which the “final HPLC purity” value is recorded as 99%.
